Source: article PMC12040169 (PLOS Biology, 2025)
This is one part of the list.

tested on: T1, CTL2-GFP (C. trachomatis L2/434/Bu, GFP-expressing); set-up: species or system HeLa; Intracellular C. trachomatis growth in HeLa cells, bulk GFP fluorescence relative to DMSO; details: bulk GFP, single well; 28.5 h, 10 µM; inhibitor
T1 construct: L2/434/Bu, GFP-expressing

Compound	% of control remaining
S=c1[nH]cnc2sc3c(c12)CCCC3 [CBK027787]	129.622%
Cc1cc(NC(=O)CN2CCCC2CC(O)c2ccccc2)no1 (stereo not shown) [CBK305139]	67.0817%
CSCCCNC(=O)N1CCN(CCc2ccccc2)CC1 [CBK158900]	110.719%
c1ccc(-n2nnnc2CSc2nc3ccccc3s2)cc1 [CBK266372]	83.9436%
CC(=O)Nc1cccc(CNC(=O)c2cccnc2OCC(F)(F)F)c1 [CBK304557]	152.096%
CC1CN(C(=O)c2ncoc2-c2ccc(F)cc2)CC(C)O1 (stereo not shown) [CBK282379]	133.079%
Cc1nn(C)c(C)c1CN(C)C(=O)CCCC(=O)O [CBK286879]	132.642%
NNC(=O)CNC(c1cc(Br)ccc1N)c1ccccc1Cl (stereo not shown) [CBK262977]	115.419%
COc1ccc(N2CCN(c3cncc(-c4cccnc4)n3)CC2)cc1OC [CBK066086]	88.0169%
CCOc1ccc(S(=O)(=O)N2CCC(C(=O)N3CCN(C)CC3)CC2)cc1 [CBK270075]	119.425%
c1ccc2[nH]c(CCc3nc4ccccc4[nH]3)nc2c1 [CBK261807]	87.2692%
CCN(CC)C(=O)c1cccc(OC)c1 [CBK012105]	108.763%
O=C1CC2(CCCC2)C(=O)N1c1ccc(S(=O)(=O)NC2CCN(Cc3ccccc3)CC2)cc1Cl [CBK074650]	102.455%
C=Cn1ncc(CN(CCN(C)C)Cc2ccc(C)o2)c1C [CBK283236]	82.3396%
O=C(Nc1ccncc1)c1c(O)n(Cc2ccccc2)c2ccccc2c1=O [CBK291222]	132.486%
CCOC(=O)N1CCC(NS(=O)(=O)c2ccc(NC(C)=O)cc2)CC1 [CBK045470]	88.0413%
Cc1cccc(NS(=O)(=O)c2ccc(I)cc2)n1 [CBK268818]	130.712%
CC1=NN(c2ccc(S(N)(=O)=O)cc2)C(=O)/C1=C\c1ccc(-c2cc([N+](=O)[O-])ccc2C)o1 [CBK263460]	119.077%
Cc1ccc(C(=O)NC2CCCC2)cn1 [CBK200117]	115.581%
O=C(CN1CC(O)CC1c1cccc(C(F)(F)F)c1)NCc1cccs1 (stereo not shown) [CBK305253]	93.7072%

Filtered by structure, the entries above with a CF3 group.
Compound	% of control remaining
CC(=O)Nc1cccc(CNC(=O)c2cccnc2OCC(F)(F)F)c1 [CBK304557]	152.096%
O=C(CN1CC(O)CC1c1cccc(C(F)(F)F)c1)NCc1cccs1 (stereo not shown) [CBK305253]	93.7072%

(listing goes on)

Compound	% of control remaining
Cc1ncsc1CCOC(=O)N1C[C@@H](C)O[C@@H](C)C1 [CBK200418]	111.942%
O=C(Cc1ccccn1)N1CCN(Cc2ccccc2)CC1 [CBK200174]	123.6%
Cc1c(CN2CCCCC2CCN2CCCC2=O)oc2ccccc12 (stereo not shown) [CBK282181]	129.593%
Clc1ccc(-c2ccc(CNCCCN3CCOCC3)o2)cc1 [CBK269562C]	93.3152%
COc1ccc(-n2ncc3c2CC(C)(C)CC3N)cc1 (stereo not shown) [CBK306789]	138.956%
O=C(c1c[nH]c(=O)c(Cl)c1)N1CCCCC1CN1CCOCC1 (stereo not shown) [CBK304416]	81.5188%
COc1cc(NC(=O)COc2cccc3ccccc23)c(C(=O)O)cc1OC [CBK268253]	165.655%
CN1CCC(=NNC(=O)c2ccc(CN3CCOCC3)cc2)CC1 [CBK262749]	113.615%
C[C@@H](Cn1nc2c(cc1=O)CCCC2)NC(=O)c1ccccc1F [CBK284560]	135.543%
COc1ccc(C2CCN(CC(=O)NCc3ccco3)CC2)cc1 [CBK283562]	110.954%
O=S(=O)(Nc1cccc2cc[nH]c12)c1cc(Cl)ccc1Cl [CBK153581]	82.7351%
COc1ccc(S(=O)(=O)Nc2ccc(C(=O)O)c(O)c2)cc1[N+](=O)[O-] [CBK299771]	187.982%
COc1nccnc1N1CCN(CCc2c[nH]c3ccccc23)CC1 [CBK084231]	120.928%
COc1cc(/C=N/c2ccc(O)c(-c3nc4ccccc4s3)c2)ccc1OC(=O)c1ccc(Cl)cc1Cl [CBK261243]	119.772%
COc1ccccc1NC(=S)NCCc1ccccn1 [CBK265358]	100%
COC1CCCC(C(=O)N2CCC(c3onc4c3CCC4)CC2)C1 (stereo not shown) [CBK285519]	111.207%
O=C(CN1C(=O)c2ccc([N+](=O)[O-])cc2C1=O)Nc1cccc2c1C(=O)N(c1ccccc1)C2=O [CBK265576]	108.182%
CCCCCC(=O)Nc1ccc(S(=O)(=O)Nc2nnc(CC)s2)cc1 [CBK045478]	27.8375%
CN(C)C1(c2nnnn2CCOC(=O)Nc2ccc(Cl)cc2)CCCCC1 [CBK266093]	93.4794%
COc1cc(NC(=O)CC2SC(NC3CCCCC3)=NC2=O)c(OC)cc1Cl (stereo not shown) [CBK059497]	107.194%
